Assay results from the supplement of paper PMC10849652.
The other results are listed elsewhere or left out.

Protein sequences, listed by entry. Tags and fused reporters are not part of them. Lines headed by an entry give the natural chain unless they say otherwise; changes in a name come on top.
UniProt Q8IWE5: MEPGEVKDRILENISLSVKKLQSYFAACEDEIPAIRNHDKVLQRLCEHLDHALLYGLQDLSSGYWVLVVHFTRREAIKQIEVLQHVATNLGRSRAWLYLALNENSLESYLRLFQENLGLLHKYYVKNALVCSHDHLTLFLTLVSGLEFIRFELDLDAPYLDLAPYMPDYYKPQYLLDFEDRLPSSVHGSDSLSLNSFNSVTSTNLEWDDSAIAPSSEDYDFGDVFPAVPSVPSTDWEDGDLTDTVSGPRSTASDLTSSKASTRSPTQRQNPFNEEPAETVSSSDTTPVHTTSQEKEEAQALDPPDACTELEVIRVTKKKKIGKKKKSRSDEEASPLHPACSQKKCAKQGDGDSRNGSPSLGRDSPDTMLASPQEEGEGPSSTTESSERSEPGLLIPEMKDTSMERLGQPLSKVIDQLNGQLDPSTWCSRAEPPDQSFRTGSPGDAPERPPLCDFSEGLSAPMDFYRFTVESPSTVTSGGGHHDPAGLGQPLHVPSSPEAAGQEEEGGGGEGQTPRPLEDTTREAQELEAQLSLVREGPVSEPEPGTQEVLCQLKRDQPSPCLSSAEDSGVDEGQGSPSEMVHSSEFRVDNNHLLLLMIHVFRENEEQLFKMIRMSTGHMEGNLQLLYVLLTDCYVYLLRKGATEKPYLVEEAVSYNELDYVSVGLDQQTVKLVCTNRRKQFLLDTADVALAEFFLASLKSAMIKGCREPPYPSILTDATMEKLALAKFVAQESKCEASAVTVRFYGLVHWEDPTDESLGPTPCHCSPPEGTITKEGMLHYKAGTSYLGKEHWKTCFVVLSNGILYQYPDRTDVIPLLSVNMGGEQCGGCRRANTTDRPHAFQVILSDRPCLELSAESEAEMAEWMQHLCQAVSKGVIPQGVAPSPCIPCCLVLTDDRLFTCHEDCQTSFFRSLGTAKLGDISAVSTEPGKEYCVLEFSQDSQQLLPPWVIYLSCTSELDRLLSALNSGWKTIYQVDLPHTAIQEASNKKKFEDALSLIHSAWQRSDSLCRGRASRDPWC
UniProt Q13136: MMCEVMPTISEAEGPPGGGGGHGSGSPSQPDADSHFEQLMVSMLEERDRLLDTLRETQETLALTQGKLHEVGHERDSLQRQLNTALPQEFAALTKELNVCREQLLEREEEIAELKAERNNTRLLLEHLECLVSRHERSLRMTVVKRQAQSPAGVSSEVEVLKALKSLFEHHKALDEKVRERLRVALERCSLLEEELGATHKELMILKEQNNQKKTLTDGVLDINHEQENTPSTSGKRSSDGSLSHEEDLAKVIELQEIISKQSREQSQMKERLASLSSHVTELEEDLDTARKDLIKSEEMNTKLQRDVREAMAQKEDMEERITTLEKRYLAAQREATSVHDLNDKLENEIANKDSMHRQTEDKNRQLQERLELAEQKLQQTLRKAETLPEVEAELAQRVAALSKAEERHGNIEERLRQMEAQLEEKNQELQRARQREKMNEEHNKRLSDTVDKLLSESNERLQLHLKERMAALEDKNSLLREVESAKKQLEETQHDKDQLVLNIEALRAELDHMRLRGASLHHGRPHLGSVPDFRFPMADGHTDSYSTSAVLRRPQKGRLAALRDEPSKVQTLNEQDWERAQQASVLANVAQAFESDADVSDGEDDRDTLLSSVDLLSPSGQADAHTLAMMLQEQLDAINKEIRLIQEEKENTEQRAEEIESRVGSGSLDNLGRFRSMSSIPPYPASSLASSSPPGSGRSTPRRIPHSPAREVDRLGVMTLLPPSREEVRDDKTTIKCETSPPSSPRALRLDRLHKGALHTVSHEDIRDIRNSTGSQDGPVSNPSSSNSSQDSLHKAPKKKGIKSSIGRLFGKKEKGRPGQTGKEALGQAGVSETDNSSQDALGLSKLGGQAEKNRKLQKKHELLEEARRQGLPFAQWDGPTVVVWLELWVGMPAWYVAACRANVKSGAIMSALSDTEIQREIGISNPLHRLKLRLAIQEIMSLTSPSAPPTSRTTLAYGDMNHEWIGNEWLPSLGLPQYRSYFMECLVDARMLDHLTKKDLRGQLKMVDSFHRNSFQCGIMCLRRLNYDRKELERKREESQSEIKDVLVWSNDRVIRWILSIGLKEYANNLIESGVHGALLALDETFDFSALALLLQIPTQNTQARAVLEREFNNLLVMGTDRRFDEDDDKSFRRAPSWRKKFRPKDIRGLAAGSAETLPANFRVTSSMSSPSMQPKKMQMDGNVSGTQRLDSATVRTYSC
UniProt Q8WZA1: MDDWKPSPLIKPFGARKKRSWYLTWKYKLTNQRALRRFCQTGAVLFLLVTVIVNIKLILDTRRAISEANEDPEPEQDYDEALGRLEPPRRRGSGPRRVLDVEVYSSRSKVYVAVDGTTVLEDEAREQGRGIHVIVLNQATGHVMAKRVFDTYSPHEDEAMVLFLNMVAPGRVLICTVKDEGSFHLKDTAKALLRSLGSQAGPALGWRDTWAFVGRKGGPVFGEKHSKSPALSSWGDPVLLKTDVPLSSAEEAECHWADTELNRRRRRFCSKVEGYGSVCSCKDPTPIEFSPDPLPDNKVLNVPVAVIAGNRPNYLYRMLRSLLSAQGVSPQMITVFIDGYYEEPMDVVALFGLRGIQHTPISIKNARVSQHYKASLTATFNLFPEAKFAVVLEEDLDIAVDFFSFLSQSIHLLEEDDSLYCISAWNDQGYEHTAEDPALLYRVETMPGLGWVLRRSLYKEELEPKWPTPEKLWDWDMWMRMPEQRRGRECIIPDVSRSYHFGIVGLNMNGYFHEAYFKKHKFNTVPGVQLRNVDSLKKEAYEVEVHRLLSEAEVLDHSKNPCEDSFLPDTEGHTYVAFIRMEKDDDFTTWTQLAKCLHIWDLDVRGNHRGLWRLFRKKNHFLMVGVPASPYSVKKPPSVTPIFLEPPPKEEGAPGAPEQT
UniProt Q8WUA2: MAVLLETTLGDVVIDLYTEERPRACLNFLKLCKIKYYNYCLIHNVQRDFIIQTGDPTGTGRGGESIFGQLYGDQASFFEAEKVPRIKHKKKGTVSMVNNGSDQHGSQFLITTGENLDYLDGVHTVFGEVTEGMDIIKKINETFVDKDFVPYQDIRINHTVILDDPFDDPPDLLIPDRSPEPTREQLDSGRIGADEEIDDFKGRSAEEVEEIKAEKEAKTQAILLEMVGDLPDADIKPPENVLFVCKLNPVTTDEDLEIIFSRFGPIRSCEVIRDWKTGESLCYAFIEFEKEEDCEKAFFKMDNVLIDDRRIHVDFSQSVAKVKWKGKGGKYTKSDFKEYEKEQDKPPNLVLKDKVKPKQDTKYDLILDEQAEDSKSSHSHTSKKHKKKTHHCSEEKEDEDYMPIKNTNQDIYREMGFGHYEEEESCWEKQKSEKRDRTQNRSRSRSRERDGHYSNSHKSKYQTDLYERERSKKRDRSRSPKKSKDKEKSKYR
UniProt Q8TF01: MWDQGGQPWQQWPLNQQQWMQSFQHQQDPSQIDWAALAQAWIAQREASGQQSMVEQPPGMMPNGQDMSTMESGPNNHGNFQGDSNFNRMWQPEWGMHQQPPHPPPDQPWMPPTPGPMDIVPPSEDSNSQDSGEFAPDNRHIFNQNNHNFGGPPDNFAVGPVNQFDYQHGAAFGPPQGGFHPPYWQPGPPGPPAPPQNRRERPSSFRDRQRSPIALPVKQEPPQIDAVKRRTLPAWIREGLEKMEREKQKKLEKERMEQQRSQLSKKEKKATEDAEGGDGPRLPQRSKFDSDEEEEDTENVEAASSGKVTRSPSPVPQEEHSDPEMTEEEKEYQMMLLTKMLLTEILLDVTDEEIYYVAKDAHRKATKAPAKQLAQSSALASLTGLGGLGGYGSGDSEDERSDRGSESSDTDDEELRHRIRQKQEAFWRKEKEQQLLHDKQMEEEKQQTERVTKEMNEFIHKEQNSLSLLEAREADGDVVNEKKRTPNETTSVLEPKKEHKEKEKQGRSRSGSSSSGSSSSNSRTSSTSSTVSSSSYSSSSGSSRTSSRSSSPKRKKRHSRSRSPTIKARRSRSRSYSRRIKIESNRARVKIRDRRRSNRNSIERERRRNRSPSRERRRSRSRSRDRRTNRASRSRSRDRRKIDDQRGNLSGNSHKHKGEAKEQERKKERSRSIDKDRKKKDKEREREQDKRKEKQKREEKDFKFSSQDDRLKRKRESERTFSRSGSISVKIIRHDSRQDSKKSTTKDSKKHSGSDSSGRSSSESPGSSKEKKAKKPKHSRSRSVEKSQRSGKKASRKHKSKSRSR
UniProt Q9H1D9: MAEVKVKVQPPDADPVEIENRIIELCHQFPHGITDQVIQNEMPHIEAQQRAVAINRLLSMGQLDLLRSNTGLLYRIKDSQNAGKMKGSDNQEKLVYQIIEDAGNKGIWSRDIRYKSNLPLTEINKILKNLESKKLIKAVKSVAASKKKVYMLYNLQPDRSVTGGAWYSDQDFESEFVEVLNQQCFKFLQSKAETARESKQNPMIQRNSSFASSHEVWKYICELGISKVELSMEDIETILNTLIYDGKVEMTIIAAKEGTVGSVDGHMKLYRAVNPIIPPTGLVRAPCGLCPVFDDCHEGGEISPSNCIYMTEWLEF
UniProt A5A3E0, whole entry, looked up: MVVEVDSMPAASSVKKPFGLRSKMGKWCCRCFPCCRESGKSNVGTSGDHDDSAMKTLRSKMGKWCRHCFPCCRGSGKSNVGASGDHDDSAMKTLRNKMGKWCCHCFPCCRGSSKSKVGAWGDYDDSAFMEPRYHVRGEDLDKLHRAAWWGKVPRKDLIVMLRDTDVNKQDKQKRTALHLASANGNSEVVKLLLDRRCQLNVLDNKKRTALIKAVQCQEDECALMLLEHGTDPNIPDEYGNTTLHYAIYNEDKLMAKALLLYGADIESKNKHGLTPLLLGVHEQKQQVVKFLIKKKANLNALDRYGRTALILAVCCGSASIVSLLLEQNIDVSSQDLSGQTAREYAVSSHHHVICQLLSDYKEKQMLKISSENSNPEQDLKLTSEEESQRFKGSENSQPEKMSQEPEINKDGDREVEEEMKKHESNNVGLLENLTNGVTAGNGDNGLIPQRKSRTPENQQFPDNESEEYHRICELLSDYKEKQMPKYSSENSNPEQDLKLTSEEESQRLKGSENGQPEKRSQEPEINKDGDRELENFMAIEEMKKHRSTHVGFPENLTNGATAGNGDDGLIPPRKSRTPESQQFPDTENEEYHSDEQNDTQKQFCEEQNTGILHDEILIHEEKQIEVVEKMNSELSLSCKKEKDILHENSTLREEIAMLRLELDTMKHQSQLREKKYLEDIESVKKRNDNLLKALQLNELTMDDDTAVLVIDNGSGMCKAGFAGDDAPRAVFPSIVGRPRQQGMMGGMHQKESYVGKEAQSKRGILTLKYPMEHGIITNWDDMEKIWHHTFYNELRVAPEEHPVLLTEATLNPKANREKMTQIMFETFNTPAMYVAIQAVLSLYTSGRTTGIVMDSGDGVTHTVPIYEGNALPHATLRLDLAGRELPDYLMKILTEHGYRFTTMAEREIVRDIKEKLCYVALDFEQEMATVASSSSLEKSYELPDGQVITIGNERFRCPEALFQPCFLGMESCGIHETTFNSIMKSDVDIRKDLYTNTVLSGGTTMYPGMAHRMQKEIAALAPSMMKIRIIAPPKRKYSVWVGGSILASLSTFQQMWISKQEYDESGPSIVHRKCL
UniProt Q9Y3C6: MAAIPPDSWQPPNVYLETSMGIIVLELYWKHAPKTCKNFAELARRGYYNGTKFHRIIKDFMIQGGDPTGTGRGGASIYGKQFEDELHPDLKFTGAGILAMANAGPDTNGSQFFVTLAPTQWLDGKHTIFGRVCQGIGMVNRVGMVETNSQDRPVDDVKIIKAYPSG
UniProt P23284: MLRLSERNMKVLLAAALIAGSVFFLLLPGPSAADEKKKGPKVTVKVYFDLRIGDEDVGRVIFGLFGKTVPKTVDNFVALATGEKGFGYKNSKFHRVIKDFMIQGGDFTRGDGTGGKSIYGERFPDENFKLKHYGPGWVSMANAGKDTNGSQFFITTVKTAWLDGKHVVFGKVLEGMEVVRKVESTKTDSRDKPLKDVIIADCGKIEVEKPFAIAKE
UniProt Q10713: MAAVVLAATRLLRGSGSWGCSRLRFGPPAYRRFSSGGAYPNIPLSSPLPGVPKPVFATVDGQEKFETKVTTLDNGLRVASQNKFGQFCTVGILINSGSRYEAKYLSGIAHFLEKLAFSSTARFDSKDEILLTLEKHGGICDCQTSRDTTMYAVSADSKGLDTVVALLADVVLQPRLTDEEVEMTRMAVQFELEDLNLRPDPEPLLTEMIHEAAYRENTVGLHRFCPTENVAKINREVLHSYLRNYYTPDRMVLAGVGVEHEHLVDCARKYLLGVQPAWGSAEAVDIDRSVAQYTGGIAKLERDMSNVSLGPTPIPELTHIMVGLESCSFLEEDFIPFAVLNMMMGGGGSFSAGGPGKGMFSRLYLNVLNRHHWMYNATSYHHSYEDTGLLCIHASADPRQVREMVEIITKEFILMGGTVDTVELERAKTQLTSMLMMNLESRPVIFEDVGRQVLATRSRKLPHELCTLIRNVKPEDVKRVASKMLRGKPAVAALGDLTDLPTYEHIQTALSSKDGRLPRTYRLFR

Assays:
Experiment in all cases: log2 fold change, soluble protein after heating vs DMSO (PISA); higher = thermal stabilisation; K562 cells, 10 uM, 30 min; active = over 0.2 and 3.5 SD of the protein, either way, in both replicates (recomputed)
bafetinib = compound: Cc1ccc(NC(=O)c2ccc(CN3CC[C@H](N(C)C)C3)c(C(F)(F)F)c2)cc1Nc1nccc(-c2cncnc2)n1 [bafetinib]
How it was run: (§1)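 Quantification of soluble protein used TMTpro 16plex LC-MS/MS, with channel sums equalised. Samples were the supernatant after 21,000xg for 90 min of pooled aliquots from K562 cells (2×10^6 cells/mL) treated with 10 μM compound for 30 min, heated for 3 min over 48°C-58°C, and extracted in PBS with 0.5% NP-40 at 4°C. Values, from duplicates, describe thermal stability against control samples on a log2 fold-change scale.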

[1] = compound: Cc1cccc(CC(=O)N2CCc3c2ccc(-c2cn(C)c4ncnc(N)c24)c3F)n1
How it was run: as §1

nilotinib = compound: Cc1cn(-c2cc(NC(=O)c3ccc(C)c(Nc4nccc(-c5cccnc5)n4)c3)cc(C(F)(F)F)c2)cn1 [nilotinib]
How it was run: as §1

[2] = compound: Cc1nc(Nc2n[nH]c3c2CN(C(=O)N[C@H](CN(C)C)c2ccccc2)C3(C)C)c2sccc2n1
How it was run: as §1

dasatinib = compound: Cc1nc(Nc2ncc(C(=O)Nc3c(C)cccc3Cl)s2)cc(N2CCN(CCO)CC2)n1 [dasatinib]
How it was run: as §1

[3] = compound: Cc1ncc(-c2ccnc(Nc3ccc(S(C)(=O)=O)cc3)n2)n1C(C)C
How it was run: as §1

[4] = compound: Cn1cc(-c2ccc3c(c2)CCN3C(=O)Cc2cccc(C(F)(F)F)c2)c2c(N)ncnc21
How it was run: as §1

[5] = compound: Cn1cc(-c2ccc3nnc(C(F)(F)c4ccc5ncccc5c4)n3n2)cn1
How it was run: as §1

tipifarnib = compound: Cn1cncc1[C@@](N)(c1ccc(Cl)cc1)c1ccc2c(c1)c(-c1cccc(Cl)c1)cc(=O)n2C [tipifarnib]
How it was run: as §1

mubritinib = compound: FC(F)(F)c1ccc(/C=C/c2nc(COc3ccc(CCCCn4ccnn4)cc3)co2)cc1 [mubritinib]
How it was run: as §1

[6] = compound: NC(=O)Nc1cc(-c2cccc(F)c2)sc1C(=O)N[C@H]1CCCNC1
How it was run: as §1

[7] = compound: NC(=O)c1cnc(N[C@@H]2CCCC[C@@H]2N)nc1Nc1cccc(-n2nccn2)c1
How it was run: as §1

[8] = compound: NC1(c2ccc(-c3nc4ccn5c(=O)[nH]nc5c4cc3-c3ccccc3)cc2)CCC1
How it was run: as §1

[9] = compound: NCC(=O)Nc1ccc(-n2nc(C(F)(F)F)cc2-c2ccc3c(ccc4ccccc43)c2)cc1
How it was run: as §1

entinostat = compound: Nc1ccccc1NC(=O)c1ccc(CNC(=O)OCc2cccnc2)cc1 [entinostat]
How it was run: as §1

vorinostat = compound: O=C(CCCCCCC(=O)Nc1ccccc1)NO [vorinostat]
How it was run: as §1

citarinostat = compound: O=C(CCCCCCNC(=O)c1cnc(N(c2ccccc2)c2ccccc2Cl)nc1)NO [citarinostat]
How it was run: as §1

silmitasertib = compound: O=C(O)c1ccc2c(c1)nc(Nc1cccc(Cl)c1)c1ccncc12 [silmitasertib]
How it was run: as §1

[10] = compound: O=C1NC(=O)C(c2cnc3ccccn23)=C1c1cn2c3c(cc(F)cc13)CN(C(=O)N1CCCCC1)CC2
How it was run: as §1

[11] = compound: c1cc(OCCN2CCCCC2)cc(-c2n[nH]c3ccc(-c4nnc[nH]4)cc23)c1
How it was run: as §1

Measured: log2 fold change

POLG2 (UniProt Q9UHN1)
inactive: bafetinib -0.002 | [1] -0.028 | nilotinib 0 | [2] 0.075 | dasatinib 0.039 | [3] 0.013 | [4] -0.018 | [5] -0.038 | tipifarnib 0.047 | mubritinib 0.021 | [6] -0.019 | [7] 0.013 | [8] -0.017 | [9] 0.034 | entinostat -0.024 | vorinostat 0.063 | citarinostat 0.027 | silmitasertib 0.01 | [10] 0.025 | [11] -0.064

PLEKHM2 (UniProt Q8IWE5)
active: [8] -0.315
inactive: bafetinib -0.09 | [1] -0.024 | nilotinib -0.054 | [2] -0.002 | dasatinib -0.072 | [3] -0.077 | [4] 0.001 | [5] -0.08 | tipifarnib -0.028 | mubritinib 0.096 | [6] 0.01 | [7] -0.102 | [9] -0.107 | entinostat 0.024 | vorinostat 0.072 | citarinostat 0.109 | silmitasertib -0.058 | [10] -0.009 | [11] -0.125

POLR3E (UniProt Q9NVU0)
inactive: bafetinib 0.059 | [1] 0.125 | nilotinib -0.234 | [2] -0.189 | dasatinib -0.3 | [3] 0.053 | [4] -0.063 | [5] 0.041 | tipifarnib -0.149 | mubritinib -0.016 | [6] -0.05 | [7] -0.075 | [8] 0.013 | [9] -0.052 | entinostat 0.032 | vorinostat 0.203 | citarinostat 0.085 | silmitasertib 0.135 | [10] -0.051 | [11] -0.031

PPFIA1 (UniProt Q13136)
inactive: bafetinib -0.011 | [1] 0.024 | nilotinib -0.223 | [2] 0 | dasatinib -0.156 | [3] -0.073 | [4] -0.056 | [5] -0.053 | tipifarnib -0.078 | mubritinib 0 | [6] -0.047 | [7] -0.034 | [8] -0.059 | [9] -0.142 | entinostat 0.006 | vorinostat 0.025 | citarinostat -0.082 | silmitasertib 0.127 | [10] 0.038 | [11] -0.012

POMGNT1 isoform 2 (UniProt Q8WZA1)
inactive: bafetinib -0.027 | [1] -0.097 | nilotinib -0.148 | [2] 0.075 | dasatinib 0.078 | [3] -0.062 | [4] 0.013 | [5] 0.147 | tipifarnib 0.13 | mubritinib 0.206 | [6] -0.301 | [7] 0.012 | [8] -0.2 | [9] -0.123 | entinostat -0.12 | vorinostat -0.008 | citarinostat -0.089 | silmitasertib -0.058 | [10] 0.003 | [11] -0.311

PPIL4 (UniProt Q8WUA2)
active: [2] -0.483
inactive: bafetinib -0.001 | [1] 0.002 | nilotinib 0.002 | dasatinib -0.065 | [3] -0.113 | [4] -0.031 | [5] -0.018 | tipifarnib -0.01 | mubritinib 0.005 | [6] -0.021 | [7] -0.085 | [8] 0.002 | [9] -0.071 | entinostat 0.011 | vorinostat 0.016 | citarinostat 0.033 | silmitasertib -0.005 | [10] -0.005 | [11] -0.1

PNISR (UniProt Q8TF01)
inactive: bafetinib -0.085 | [1] -0.058 | nilotinib 0 | [2] -0.204 | dasatinib 0.03 | [3] -0.017 | [4] 0.017 | [5] -0.002 | tipifarnib -0.006 | mubritinib -0.013 | [6] -0.017 | [7] 0.029 | [8] 0.036 | [9] 0.051 | entinostat -0.027 | vorinostat -0.007 | citarinostat -0.004 | silmitasertib -0.036 | [10] -0.022 | [11] -0.037

POLD3 (UniProt Q15054)
inactive: bafetinib 0.846 | [1] 0.058 | nilotinib -0.014 | [2] -0.052 | dasatinib -0.068 | [3] 0.096 | [4] 0.028 | [5] 0.044 | tipifarnib -0.01 | mubritinib 0.024 | [6] 0.035 | [7] -0.143 | [8] -0.107 | [9] -0.108 | entinostat 0.134 | vorinostat -0.008 | citarinostat 0.003 | silmitasertib -0.022 | [10] -0.013 | [11] 0.109

POLR3F (UniProt Q9H1D9)
inactive: bafetinib -0.064 | [1] -0.012 | nilotinib 0.004 | [2] -0.006 | dasatinib 0.038 | [3] -0.011 | [4] 0.048 | [5] 0.036 | tipifarnib 0.097 | mubritinib 0.026 | [6] 0.006 | [7] -0.043 | [8] 0.006 | [9] -0.01 | entinostat -0.027 | vorinostat 0.111 | citarinostat -0.012 | silmitasertib -0.015 | [10] -0.038 | [11] -0.124

POLR2I (UniProt P36954)
inactive: bafetinib -0.044 | [1] 0.024 | nilotinib -0.026 | [2] 0.233 | dasatinib 0.079 | [3] 0.338 | [4] -0.029 | [5] 0.021 | tipifarnib 0.072 | mubritinib -0.054 | [6] -0.025 | [7] 0.115 | [8] 0.102 | [9] 0.067 | entinostat 0.114 | vorinostat -0.243 | citarinostat -0.09 | silmitasertib 0.028 | [10] -0.091 | [11] -0.005

PPM1A isoform 3 (UniProt P35813)
inactive: bafetinib 0.003 | [1] -0.003 | nilotinib 0.032 | [2] 0.119 | dasatinib -0.072 | [3] -0.015 | [4] 0.011 | [5] 0.051 | tipifarnib -0.058 | mubritinib 0.138 | [6] -0.081 | [7] -0.003 | [8] -0.133 | [9] -0.033 | entinostat -0.02 | vorinostat 0.029 | citarinostat 0.008 | silmitasertib -0.029 | [10] -0.125 | [11] 0.013

POTEF (UniProt A5A3E0)
inactive: bafetinib -0.04 | [1] -0.022 | nilotinib 0.014 | [2] -0.029 | dasatinib 0.016 | [3] 0.015 | [4] 0.001 | [5] -0.015 | tipifarnib 0.038 | mubritinib 0.043 | [6] -0.017 | [7] -0.006 | [8] 0.026 | [9] 0 | entinostat -0.008 | vorinostat -0.028 | citarinostat -0.004 | silmitasertib 0.037 | [10] -0.079 | [11] -0.034

Retrieved one by one from the entries so far, 2 records:
POTEF (UniProt A5A3E0)
inactive: bafetinib -0.04 | [1] -0.022 | nilotinib 0.014 | [2] -0.029 | dasatinib 0.016 | [3] 0.015 | [4] 0.001 | [5] -0.015 | tipifarnib 0.038 | mubritinib 0.043 | [6] -0.017 | [7] -0.006 | [8] 0.026 | [9] 0 | entinostat -0.008 | vorinostat -0.028 | citarinostat -0.004 | silmitasertib 0.037 | [10] -0.079 | [11] -0.034

POLR2I (UniProt P36954)
inactive: bafetinib -0.044 | [1] 0.024 | nilotinib -0.026 | [2] 0.233 | dasatinib 0.079 | [3] 0.338 | [4] -0.029 | [5] 0.021 | tipifarnib 0.072 | mubritinib -0.054 | [6] -0.025 | [7] 0.115 | [8] 0.102 | [9] 0.067 | entinostat 0.114 | vorinostat -0.243 | citarinostat -0.09 | silmitasertib 0.028 | [10] -0.091 | [11] -0.005

Next results follow:

PPIL1 (UniProt Q9Y3C6)
inactive: bafetinib 0.024 | [1] -0.002 | nilotinib -0.029 | [2] 0.046 | dasatinib -0.042 | [3] 0.073 | [4] -0.063 | [5] -0.022 | tipifarnib -0.088 | mubritinib 0.01 | [6] -0.054 | [7] 0.059 | [8] 0.008 | [9] -0.074 | entinostat -0.001 | vorinostat -0.013 | citarinostat 0.015 | silmitasertib 0.075 | [10] 0.001 | [11] -0.051

PPIA (UniProt P62937)
inactive: bafetinib -0.048 | [1] 0.003 | nilotinib -0.004 | [2] -0.023 | dasatinib 0.001 | [3] 0.001 | [4] 0.041 | [5] 0.015 | tipifarnib -0.01 | mubritinib 0.031 | [6] -0.023 | [7] -0.02 | [8] -0.037 | [9] -0.044 | entinostat 0.011 | vorinostat -0.026 | citarinostat 0.058 | silmitasertib -0.04 | [10] -0.039 | [11] 0.033

PPIB (UniProt P23284)
inactive: bafetinib 0.033 | [1] -0.023 | nilotinib -0.018 | [2] 0.036 | dasatinib 0.056 | [3] -0.039 | [4] -0.115 | [5] 0.013 | tipifarnib 0.06 | mubritinib -0.065 | [6] -0.018 | [7] -0.016 | [8] -0.01 | [9] 0 | entinostat -0.017 | vorinostat -0.016 | citarinostat -0.001 | silmitasertib 0.011 | [10] 0.009 | [11] -0.055

PMPCA (UniProt Q10713)
inactive: bafetinib 0.063 | [1] 0.016 | nilotinib 0.024 | [2] 0.057 | [3] -0.096 | [4] 0.067 | [5] 0.04 | mubritinib 0.087 | [6] -0.091 | [7] -0.059 | [8] -0.02 | [9] -0.053 | entinostat -0.018 | vorinostat -0.016 | citarinostat 0.017 | silmitasertib -0.061 | [10] 0.01 | [11] 0.015
active: dasatinib 0.54 | tipifarnib 0.285
